No constants are given. Whether binding was seen depends on the method and setting. Binding seen in cells or lysates may run through a third protein. For some assays here: A result given as binding can be weak or reduced; the word gives no strength. Tags and fused reporters may be left off the sequences shown.
Assays:
Test in all cases: split reporter; split YFP in rice protoplasts, 5 ug of each plasmid, 24-36 hr after transfection, fluorescence graded +++ to –; the YFPN fusion is written as binder, the YFPC fusion as target
[1] = molecular target: TGAL11 (split YFP fusion) (rice (Nipponbare))
[2] = molecular target: rTGA2.3 (split YFP fusion) (rice (Nipponbare))
[3] = molecular target: TGAL4 (split YFP fusion) (rice (Nipponbare))
[4] = molecular target: rTGA2.2 (split YFP fusion) (rice (Nipponbare))
[5] = molecular target: TGAL9 (split YFP fusion) (rice (Nipponbare))
[6] = molecular target: TGAL1 (split YFP fusion) (rice (Nipponbare))
[7] = molecular target: TGAL7 (split YFP fusion) (rice (Nipponbare))
[8] = molecular target: rLG2 (split YFP fusion) (rice (Nipponbare))
[9] = molecular target: TGAL5 (split YFP fusion) (rice (Nipponbare))
[10] = molecular target: RH2 (split YFP fusion) (rice (Nipponbare))
[11] = molecular target: TGAL2 (split YFP fusion) (rice (Nipponbare))
[12] = molecular target: rTGA2.1 (split YFP fusion) (rice (Nipponbare))
[13] = molecular target: TGAL6 (split YFP fusion) (rice (Nipponbare))
[14] = molecular target: NRR (split YFP fusion) (rice (Nipponbare))

B1: NH2 (split YFP fusion) (protein, UniProt Q0JJ01 1-635)
chain: MPARSAVVVIAMEPSSSITIASSSSYLSNGSSPCSVSLAPPGAGAVAAQAAPVAAGEGGGGGGGGGGGGSSSVEVVSLNRLSANLERLLLDSDLDCSDADVDVADGGPPVPVHRCILAARSTFFYNLFAARGRGGDGAAGGGGGGGGGGGERTGGRPRYKMEELVPGGRVGRDAFLSLLGYLYTGKLRPAPDDVVSCADPMCPHDSCPPAIRFNVEQMYAAWAFKITELISLFQRRLLNFVDKTLVEDVLPILQVAFHSELTPVLEKCIRRIARSNLDNVSLDKELPPEVAVQIKEIRQKSQPNEGDTVISDPVHEKRVRRIHRALDSDDVELVKLLLNESEITLDDANALHYAAAYCDSKVVSELLDLRLANLNLKNSRGYTALHLAAMRREPAIIMCLLNKGAAVSQLTADGQSAMSICRRLTRMKDYNTKMEQGQESNKDRLCIDILDREMIRKPMAVEDSVTSPLLADDLHMKLLYLENRVAFARLFFPAEAKVAMQIAQADTTPEFGIVPAASTSGKLKEVDLNETPVTQNKRLRSRVDALMKTVELGRRYFPNCSQVLDKFLEDDLPDSPDALDLQNGTSDEQNVKRMRFCELKEDVRKAFSKDRADNSMFSILSSSSSSSPPPKVAKK
binding [1]: binds
binding [2]: binds weakly
binding [3]: no binding
binding [4]: binds weakly
binding [5]: no binding
binding [6]: binds
binding [7]: binds weakly
binding [8]: no binding
binding [9]: no binding
binding [10]: binds weakly
binding [11]: binds
binding [12]: no binding
binding [13]: no binding
binding [14]: binds weakly
